Measured values as given in the supplement of paper PMC12067093, “Discovery and optimisation of a covalent ligand for TRIM25 and its application to targeted protein ubiquitination” (Chemical Science, 2025).
The list shows a part of the results.

Chains of the proteins cited; added tags and fusions are not shown. Lines headed by an entry give the natural chain unless they say otherwise; changes in a name come on top.
UniProt Q9UQ35: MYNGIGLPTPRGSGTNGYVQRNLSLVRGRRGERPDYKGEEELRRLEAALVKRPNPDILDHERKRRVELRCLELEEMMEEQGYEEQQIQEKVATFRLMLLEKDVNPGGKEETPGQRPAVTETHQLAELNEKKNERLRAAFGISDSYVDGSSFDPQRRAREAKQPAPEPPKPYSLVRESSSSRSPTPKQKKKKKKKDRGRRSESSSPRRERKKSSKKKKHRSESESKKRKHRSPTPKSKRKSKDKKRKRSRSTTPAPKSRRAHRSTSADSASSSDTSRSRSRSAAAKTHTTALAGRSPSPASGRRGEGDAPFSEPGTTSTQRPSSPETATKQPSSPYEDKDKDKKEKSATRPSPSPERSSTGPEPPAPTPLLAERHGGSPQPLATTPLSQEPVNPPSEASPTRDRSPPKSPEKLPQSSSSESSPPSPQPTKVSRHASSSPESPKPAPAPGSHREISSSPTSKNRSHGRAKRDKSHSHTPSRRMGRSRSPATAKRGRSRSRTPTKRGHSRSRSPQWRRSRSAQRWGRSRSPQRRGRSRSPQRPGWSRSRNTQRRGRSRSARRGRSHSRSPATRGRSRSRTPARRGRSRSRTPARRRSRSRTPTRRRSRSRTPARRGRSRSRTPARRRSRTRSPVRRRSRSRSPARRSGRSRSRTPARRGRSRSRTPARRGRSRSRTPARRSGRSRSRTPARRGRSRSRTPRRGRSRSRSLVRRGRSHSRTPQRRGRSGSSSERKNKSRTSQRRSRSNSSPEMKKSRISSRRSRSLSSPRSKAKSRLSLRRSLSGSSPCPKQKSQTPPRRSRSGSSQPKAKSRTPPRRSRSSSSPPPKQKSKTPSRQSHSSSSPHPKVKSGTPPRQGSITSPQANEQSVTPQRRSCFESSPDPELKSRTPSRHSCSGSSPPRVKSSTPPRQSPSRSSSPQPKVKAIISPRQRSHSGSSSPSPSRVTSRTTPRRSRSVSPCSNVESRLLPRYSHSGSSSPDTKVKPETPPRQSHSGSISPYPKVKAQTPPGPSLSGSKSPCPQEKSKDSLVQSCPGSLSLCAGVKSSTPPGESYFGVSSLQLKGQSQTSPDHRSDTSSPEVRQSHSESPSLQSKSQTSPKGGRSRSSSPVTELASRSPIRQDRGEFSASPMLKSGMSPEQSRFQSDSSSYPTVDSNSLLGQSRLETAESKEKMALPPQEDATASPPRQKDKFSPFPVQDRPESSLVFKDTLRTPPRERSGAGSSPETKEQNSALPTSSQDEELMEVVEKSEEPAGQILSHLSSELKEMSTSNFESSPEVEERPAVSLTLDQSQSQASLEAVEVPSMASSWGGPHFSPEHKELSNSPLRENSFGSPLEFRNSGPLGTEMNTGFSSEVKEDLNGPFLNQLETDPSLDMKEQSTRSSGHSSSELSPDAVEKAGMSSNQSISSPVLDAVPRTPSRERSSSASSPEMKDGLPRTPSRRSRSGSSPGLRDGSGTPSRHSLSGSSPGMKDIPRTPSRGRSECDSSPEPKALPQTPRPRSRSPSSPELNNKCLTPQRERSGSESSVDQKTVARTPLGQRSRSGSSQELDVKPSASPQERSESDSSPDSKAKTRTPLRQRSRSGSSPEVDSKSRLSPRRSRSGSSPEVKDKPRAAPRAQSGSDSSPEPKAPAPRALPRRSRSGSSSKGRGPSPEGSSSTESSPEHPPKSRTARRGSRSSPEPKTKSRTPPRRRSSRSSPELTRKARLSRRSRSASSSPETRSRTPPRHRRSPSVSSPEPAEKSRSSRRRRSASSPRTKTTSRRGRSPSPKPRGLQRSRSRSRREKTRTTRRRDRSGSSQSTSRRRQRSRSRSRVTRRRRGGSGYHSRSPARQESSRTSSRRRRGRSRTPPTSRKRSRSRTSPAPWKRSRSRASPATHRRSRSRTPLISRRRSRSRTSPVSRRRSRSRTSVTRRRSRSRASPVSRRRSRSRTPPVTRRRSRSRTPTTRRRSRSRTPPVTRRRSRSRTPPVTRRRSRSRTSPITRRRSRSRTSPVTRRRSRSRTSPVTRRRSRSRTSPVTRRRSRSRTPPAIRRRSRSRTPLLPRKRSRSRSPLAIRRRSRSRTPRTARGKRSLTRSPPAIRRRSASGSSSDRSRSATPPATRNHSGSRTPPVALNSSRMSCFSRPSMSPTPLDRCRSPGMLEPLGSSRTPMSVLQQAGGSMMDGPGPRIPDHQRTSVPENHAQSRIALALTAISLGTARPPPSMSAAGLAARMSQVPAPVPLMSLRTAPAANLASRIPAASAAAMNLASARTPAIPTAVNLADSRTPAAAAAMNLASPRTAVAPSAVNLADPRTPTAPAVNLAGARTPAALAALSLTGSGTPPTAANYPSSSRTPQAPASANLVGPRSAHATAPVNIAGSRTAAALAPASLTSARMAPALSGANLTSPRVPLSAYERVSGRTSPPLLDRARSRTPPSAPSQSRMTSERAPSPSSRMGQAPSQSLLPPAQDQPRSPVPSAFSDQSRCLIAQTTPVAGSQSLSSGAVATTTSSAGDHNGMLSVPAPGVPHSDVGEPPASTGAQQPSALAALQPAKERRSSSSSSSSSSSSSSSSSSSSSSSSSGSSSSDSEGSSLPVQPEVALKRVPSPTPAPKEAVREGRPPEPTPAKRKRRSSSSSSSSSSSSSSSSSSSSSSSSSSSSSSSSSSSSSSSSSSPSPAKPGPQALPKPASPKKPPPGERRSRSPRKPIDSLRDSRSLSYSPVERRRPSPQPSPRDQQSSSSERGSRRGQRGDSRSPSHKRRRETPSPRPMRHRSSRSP
UniProt Q9NP77: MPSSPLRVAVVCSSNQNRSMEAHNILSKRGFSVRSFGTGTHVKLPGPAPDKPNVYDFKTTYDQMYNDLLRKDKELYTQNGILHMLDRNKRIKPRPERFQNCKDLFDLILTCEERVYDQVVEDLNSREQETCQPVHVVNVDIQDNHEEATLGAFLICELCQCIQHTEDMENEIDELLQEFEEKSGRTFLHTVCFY
UniProt P40763, whole entry, looked up: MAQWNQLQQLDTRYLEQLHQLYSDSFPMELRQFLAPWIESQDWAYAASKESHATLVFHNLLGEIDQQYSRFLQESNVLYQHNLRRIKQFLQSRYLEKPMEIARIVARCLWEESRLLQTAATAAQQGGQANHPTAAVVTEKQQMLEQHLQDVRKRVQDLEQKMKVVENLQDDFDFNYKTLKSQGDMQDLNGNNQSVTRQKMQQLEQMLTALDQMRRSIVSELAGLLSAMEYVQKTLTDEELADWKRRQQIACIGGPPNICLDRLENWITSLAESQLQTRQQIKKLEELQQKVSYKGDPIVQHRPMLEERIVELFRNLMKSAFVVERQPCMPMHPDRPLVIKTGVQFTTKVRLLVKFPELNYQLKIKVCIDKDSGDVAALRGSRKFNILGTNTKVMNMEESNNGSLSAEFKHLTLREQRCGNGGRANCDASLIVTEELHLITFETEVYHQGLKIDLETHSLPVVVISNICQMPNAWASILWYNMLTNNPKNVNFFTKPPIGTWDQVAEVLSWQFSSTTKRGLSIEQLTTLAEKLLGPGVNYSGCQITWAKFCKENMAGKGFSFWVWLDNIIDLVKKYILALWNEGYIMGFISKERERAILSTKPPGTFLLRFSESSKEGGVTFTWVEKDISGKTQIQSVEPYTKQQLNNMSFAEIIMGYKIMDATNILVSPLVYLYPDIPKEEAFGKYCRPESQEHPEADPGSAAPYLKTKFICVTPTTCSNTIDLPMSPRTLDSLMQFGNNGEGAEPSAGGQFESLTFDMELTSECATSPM
UniProt P52630: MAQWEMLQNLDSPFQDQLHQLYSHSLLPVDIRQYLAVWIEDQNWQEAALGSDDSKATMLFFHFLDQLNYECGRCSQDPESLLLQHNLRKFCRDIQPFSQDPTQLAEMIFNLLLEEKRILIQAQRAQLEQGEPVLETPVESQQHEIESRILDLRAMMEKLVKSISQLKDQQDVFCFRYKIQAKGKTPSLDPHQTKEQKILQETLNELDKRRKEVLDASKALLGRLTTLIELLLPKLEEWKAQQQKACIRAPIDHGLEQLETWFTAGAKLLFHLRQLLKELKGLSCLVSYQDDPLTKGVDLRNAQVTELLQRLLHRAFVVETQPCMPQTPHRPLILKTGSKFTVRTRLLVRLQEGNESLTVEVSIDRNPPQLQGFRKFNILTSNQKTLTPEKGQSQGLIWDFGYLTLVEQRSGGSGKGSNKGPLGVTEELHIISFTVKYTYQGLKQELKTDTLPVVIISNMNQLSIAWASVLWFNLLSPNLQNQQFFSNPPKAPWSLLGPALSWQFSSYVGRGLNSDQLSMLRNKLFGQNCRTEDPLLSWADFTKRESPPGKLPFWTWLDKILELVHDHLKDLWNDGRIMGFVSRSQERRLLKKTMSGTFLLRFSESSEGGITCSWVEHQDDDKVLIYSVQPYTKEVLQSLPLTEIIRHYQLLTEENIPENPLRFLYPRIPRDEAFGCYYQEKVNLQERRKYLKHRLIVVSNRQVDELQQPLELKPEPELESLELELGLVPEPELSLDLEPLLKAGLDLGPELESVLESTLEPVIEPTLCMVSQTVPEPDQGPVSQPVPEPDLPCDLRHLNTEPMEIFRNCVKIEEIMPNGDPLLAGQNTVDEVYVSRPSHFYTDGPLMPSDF
UniProt Q5T5C0: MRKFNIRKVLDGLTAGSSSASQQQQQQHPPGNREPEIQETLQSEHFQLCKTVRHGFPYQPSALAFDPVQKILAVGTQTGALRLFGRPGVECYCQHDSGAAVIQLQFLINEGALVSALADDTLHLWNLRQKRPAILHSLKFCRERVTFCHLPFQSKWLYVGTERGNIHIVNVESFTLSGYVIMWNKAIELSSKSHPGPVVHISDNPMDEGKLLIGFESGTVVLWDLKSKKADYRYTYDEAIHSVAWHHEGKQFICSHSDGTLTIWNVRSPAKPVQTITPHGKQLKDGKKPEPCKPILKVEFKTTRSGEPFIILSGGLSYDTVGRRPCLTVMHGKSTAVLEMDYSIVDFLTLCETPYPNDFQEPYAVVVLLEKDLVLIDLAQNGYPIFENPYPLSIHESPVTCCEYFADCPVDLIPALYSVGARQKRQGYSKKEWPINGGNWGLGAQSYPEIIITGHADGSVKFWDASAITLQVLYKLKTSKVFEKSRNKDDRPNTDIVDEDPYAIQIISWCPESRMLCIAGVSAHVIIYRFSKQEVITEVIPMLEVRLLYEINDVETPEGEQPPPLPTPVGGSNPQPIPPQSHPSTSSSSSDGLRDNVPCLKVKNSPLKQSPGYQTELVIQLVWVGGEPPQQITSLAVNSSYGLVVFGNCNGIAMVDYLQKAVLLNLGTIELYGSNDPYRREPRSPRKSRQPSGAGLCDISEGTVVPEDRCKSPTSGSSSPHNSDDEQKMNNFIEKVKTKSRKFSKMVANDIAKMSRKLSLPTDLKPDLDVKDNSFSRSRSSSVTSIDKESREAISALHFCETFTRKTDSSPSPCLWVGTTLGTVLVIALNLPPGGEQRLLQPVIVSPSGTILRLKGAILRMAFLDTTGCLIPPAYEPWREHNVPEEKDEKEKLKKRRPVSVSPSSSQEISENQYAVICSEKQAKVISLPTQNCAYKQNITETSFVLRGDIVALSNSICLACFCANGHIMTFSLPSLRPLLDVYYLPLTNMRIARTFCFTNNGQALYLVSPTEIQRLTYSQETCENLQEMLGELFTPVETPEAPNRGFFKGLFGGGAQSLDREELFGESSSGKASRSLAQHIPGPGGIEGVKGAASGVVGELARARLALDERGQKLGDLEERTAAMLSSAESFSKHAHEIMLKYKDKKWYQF
UniProt O15260: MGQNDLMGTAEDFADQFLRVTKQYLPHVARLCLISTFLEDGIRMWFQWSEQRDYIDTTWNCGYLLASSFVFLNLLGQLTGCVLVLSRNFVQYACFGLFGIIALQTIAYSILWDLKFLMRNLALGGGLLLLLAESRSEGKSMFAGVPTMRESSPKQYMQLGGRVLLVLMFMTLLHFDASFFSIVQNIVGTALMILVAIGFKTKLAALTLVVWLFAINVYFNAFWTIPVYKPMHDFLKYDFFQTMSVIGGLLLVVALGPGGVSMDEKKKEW
UniProt Q9UH65: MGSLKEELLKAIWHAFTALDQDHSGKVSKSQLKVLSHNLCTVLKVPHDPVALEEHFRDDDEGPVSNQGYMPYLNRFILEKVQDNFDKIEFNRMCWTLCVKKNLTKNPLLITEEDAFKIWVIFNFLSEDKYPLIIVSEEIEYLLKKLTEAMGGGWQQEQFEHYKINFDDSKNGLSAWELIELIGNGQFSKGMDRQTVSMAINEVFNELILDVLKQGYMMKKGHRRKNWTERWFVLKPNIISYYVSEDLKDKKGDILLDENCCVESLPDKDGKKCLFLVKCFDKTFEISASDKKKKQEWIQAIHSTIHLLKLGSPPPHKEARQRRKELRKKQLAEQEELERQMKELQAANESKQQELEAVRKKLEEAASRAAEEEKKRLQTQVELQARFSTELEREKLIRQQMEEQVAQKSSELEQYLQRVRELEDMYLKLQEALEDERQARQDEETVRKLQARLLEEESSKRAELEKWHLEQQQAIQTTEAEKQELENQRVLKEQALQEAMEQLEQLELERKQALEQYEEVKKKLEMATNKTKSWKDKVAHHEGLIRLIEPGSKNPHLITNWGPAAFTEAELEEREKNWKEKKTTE

Compound: CC1Cc2ccccc2N1C(=O)C1CCCN(C1)C(=O)CCl (mixture of isomers) [TRIM25 ligand 11 (diastereomer mixture)]
Assay: probe-labelled cysteine peptide fold change vs DMSO (competition) (log2 fold change); higher = less target engagement (more negative = stronger competition)
Settings: THP-1, incubation time: 4 h
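Note: competitive chemoproteomic profiling in live THP-1 cells with an iodoacetamide desthiobiotin (IA-DTB) probe, comparing probe-labelled peptide intensities in compound-treated cells against DMSO-treated controls.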

Target | probe-labelled cysteine peptide fold change (10 µM) | probe-labelled cysteine peptide fold change (50 µM)
SUPT5H_O00267_429_EHNFQPGDNVEVCEGELINLQGK (UniProt O00267) | -0.0998 | -0.175
SSH3_Q8TE77_434_QYECSLEQALR (UniProt Q8TE77) | 0.121 | 0.23
SRRM2_Q9UQ35_70_CLELEEMMEEQGYEEQQIQEK (UniProt Q9UQ35) | -0.279 | -0.0733
SSU72_Q9NP77_192_TFLHTVCFY (UniProt Q9NP77) | -0.159 | 0.226
SRRT_Q9BXP5_412_DAAGLECKPRPLHK (UniProt Q9BXP5) | -0.0536 | -0.27
STAT3_P40763_542_LLGPGVNYSGCQITWAK (UniProt P40763) | -0.00986 | 0.0174
STAT2_P52630_71_ATMLFFHFLDQLNYECGR (UniProt P52630) | 0.0863 | -0.0509
STXBP5_Q5T5C0_933_VISLPTQNCAYK (UniProt Q5T5C0) | 0.21 | 0.269
STX17_P56962_290_LTSSCPDLPSQTDKK (UniProt P56962) | -0.16 | -0.225
STAT3_P40763_251_QQIACIGGPPNICLDR (UniProt P40763) | -0.0286 | -0.272
SURF4_O15260_32_LCLISTFLEDGIR (UniProt O15260) | 0.474 | 0.348
SWAP70_Q9UH65_261_GDILLDENCCVESLPDK (UniProt Q9UH65) | 0.344 | 0.29
SUPT4H1_P63272_16+19_ACLLCSLVK (UniProt P63272) | 0.0764 | 0.0238
SRPRA_P08240_424_RQRPYVVTFCGVNGVGK (UniProt P08240) | -0.0263 | 0.0888

Individual results from the entries so far:
SWAP70_Q9UH65_261_GDILLDENCCVESLPDK (UniProt Q9UH65) | probe-labelled cysteine peptide fold change (10 µM): 0.344
SRRM2_Q9UQ35_70_CLELEEMMEEQGYEEQQIQEK (UniProt Q9UQ35) | probe-labelled cysteine peptide fold change (50 µM): -0.0733
